# Reference: patent publication US20170320950A1
# Residue numbers refer to the chain shown, from its start. Results are given in words; binding and its absence hold for the method and conditions named. Binding can be weak; no strength is given.
# B1: VSTB50 (antibody, human IgG1, kappa, V domains shown)
# VH: QVQLVQSGSELKKPGASVKVSCKASGYTFTNYGLNWVRQAPGQGLEWMGWINPYTGEPTYADDFKGRFVFSLDTSVSTAYLQICSLKAEDTAVYYCAREGYGNYIFPYWGQGTLVTVSS
# VL: DIVMTQTPLSLSVTPGQPASISCRASESVDTYANSLMHWYLQKPGQPPQLLIYRASNLESGVPDRFSGSGSGTDFTLKISRVEAEDVGVYYCQQTNEDPRTFGQGTKLEIKR
# B2: VSTB60 (antibody, human IgG1, kappa, V domains shown)
# VH: B1 VH with L34M, N35T, P53T, P58S, E99D, G100Y, N103I, I105V, F106S, P107A
# VL: B1 VL with T31N, L36F, P47S, T95S, N96H, R100Y
# B3: VSTB95 (antibody, human IgG1, kappa, V domains shown)
# VH: EVQLVESGGGLVQPGGSLRLSCAASGFTFRNYGMSWVRQAPGKGLEWVASIISGGSYTYYPDSVKGRFTISRDNAKNSLYLQMNSLRAEDTAVYYCARIYDHDGDYYAMDYWGQGTTVTVSS
# VL: DIVMTQSPLSLPVTPGEPASISCRSSQSIVHSNGNTYLEWYLQKPGQSPQLLIYKVSNRFSGVPDRFSGSGSGTDFTLKISRVEAEDVGVYYCFQGSHVPWTFGQGTKLEIKR
# B4: VSTB53 (antibody, human IgG1, kappa, V domains shown)
# VH: QVQLVQSGAEVKKPGASVKVSCKASGYTFTHYTIHWVRQAPGQGLEWMGYIIPSSGYSEYNQKFKDRVTMTRDTSTSTVYMELSSLRSEDTAVYYCARGAYDDYYDYYAMDYWGQGTLVTVSS
# VL: B3 VL with S28T, G96A
# Target: cynomolgus VISTA extracellular domain (cynomolgus)
# Assay: ELISA
row,binding,Binder
1,binds,B1
2,binds,B2
3,binds,B3
4,binds,B4
